Source: patent publication US20110271408A1
Results are given in words; binding and its absence hold for the method and conditions named. Some entries that bind do so weakly or less than the wild type. Tags and fused reporters may be left off the sequences shown.

Amino acid sequences for entries named in this document (tags omitted).
UniProt Q9CAJ0: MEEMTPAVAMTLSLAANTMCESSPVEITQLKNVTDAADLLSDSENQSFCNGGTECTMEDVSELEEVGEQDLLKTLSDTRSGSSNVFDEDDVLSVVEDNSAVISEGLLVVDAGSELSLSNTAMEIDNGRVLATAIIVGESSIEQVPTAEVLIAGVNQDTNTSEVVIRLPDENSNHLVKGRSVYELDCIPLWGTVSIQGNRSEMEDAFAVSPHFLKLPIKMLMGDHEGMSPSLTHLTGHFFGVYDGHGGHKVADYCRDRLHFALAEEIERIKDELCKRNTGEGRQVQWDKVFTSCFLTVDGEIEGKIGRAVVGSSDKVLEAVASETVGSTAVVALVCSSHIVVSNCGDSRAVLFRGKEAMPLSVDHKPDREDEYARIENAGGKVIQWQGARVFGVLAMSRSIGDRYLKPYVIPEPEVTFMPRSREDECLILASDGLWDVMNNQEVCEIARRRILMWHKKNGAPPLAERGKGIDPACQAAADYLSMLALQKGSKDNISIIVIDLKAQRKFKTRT

Biological target: HAB1-GAL4 AD (Gal4 activation domain (AD)-PP2C fusion protein encoded by pAD-HAB1) (UniProt Q9CAJ0)
Assay: yeast two-hybrid X-gal staining (Y190 pAD-HAB1) on increasing fenhexamid

binding: binds
B1: PYL2 K64R, Y124H, M164I, V67I, V114I mutant, GAL4 BD fusion (pBD-PYL2) (receptor)
chain: MSSSPAVKGLTDEEQKTLEPVIKTYHQFEPDPTTCTSLITQRIHAPASVVWPLIRRFDNPERYRHFIKRCRLISGDGDVGSVREVTVISGLPASTSTERLEFVDDDHRVLSFRIVGGEHRLKNHKSVTSVNEFLNQDSGKVYTVVLESYTVDIPEGNTEEDTKIFVDTVVKLNLQKLGVAATSAPMHDDE
